Test results published in patent US11304988B2, “Inhibiting tumor cell migration by inhibition of kinesin light chain 1, variant 1 (KLC1C)” (Northwestern University, priority 2018, dated 2022).

Test system: B16F10 cells
Assay: host inflammatory response to extravasated B16F10 cells in lung
Format: in vivo, mouse
Settings: for tumor cells surrounded by leukocytes (provoked an inflammatory response): B16F10 cells within lung parenchyma of pretreated mice
Description: FIG. 14. B16F10 cells in lung of mice treated with Tat-Scr 5 days after injection. 25% of the tumor cells were seen several cell diameters away from leukocytes stained with anti CD11a.
FIG. 15. B16F10 cells within lung parenchyma engaged with leukocytes. 96% of the tumor cells in mice pretreated with Tat-KLC1c but only 75% in mice treated with Tat-Scr were surrounded by leukocytes.
Experiments are conducted during development of embodiments herein to examine recently-emigrated melanoma cells and quantify the inflammatory response they generate, the expression of putative melanoma stem cell markers, and the degree of tumor cell and inflammatory cell apoptosis. Experiments are conducted as in Example 2, but mice are sacrificed at appropriate times to examine the host response to the tumor cell extravasation. Early inflammatory response should manifest by day 2 and mature over the next few days. Tumor cells are labeled with carboxyfluorescein (CFSE) to facilitate locating them in lung tissue. Thick (100 μm) frozen sections are cut from the fixed and cryoprotected tissue to allow observation of the 3-dimensional relationship of tumors to the host tissue. Sections are fixed and gently permeabilized (0.3% Triton X-100 in PBS+2.5% BSA) to allow penetration of antibodies, then stained for markers of macrophages (F4/80), neutrophils (GR-1 or S100A9), monocytes (CD14), natural killer cells (CD56), or T cells (CD3). Selective staining for endothelial cells (CD31 or VE-cadherin) delineates intravascular vs. extravascular leukocytes. Additionally, samples are stained for markers of murine myeloid-derived suppressor cells (Arginase-1 and STAT-3) and Regulatory T cells (Tregs; Foxp3). Serial sections are also cut thin (5-10 μm) to allow detailed analysis of the leukocyte types involved in the inflammatory response as a function of time. Cleaved caspase 3 serve as a marker for apoptosis in either tumor cells or leukocytes. […] This is consistent with the determination that melanoma cells that extravasate via the LBRC avoid stimulating an inflammatory response.

| Substance | tumor cells surrounded by leukocytes (provoked an inflammatory response) [%] | tumor cells seen several cell diameters away from leukocytes (lung, 5 days after injection, anti CD11a staining) [%] |
| --- | --- | --- |
| Tat-KLC1c: 11-amino acid basic region from HIV Tat protein, glycine tripeptide linker, C-terminal decapeptide of KLC1c (MRKMKLGLVN); SEQ ID NO: 8 (YGRKKRRQRRRGGGMRKMKLGLVN) | 96 | – |
| Tat-Scr: negative control peptide contains the same ten amino acids in a random order (scrambled, Scr); SEQ ID NO: 9 (YGRKKRRQRRRGGGGKLNKMVMLR) [reference compound] | 75 | 25 |
